About 620 (0.19%) of roughly 320,000 compounds were called active. Inconclusive means that the source gave no clear call. Such entries were picked first, then a sample of the others. Cut-off read from the data, not from the text of the source: active = activation above about 80%; inconclusive = between about 30% and that limit; inactive = weaker than that.
molecular target: Transient receptor potential cation channel subfamily V member 1 (Homo sapiens) (UniProt Q8NER1); assay: HTS Assay for Compounds that Act as Agonists of the Vanilloid Receptor 1; conditions: TRPV1-expressing cells, Fluo-8 calcium influx, agonist mode; at 8.33 µM, stronger effect = higher value; note: 0% is about no effect
Outline: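 Fluo-8 calcium influx in TRPV1-expressing cells, kinetic read (ex 480/em 520 nm). Compound added and read 3 min for agonist activity, followed by capsaicin at EC20 final and 2 min further read for enhancement.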

Protein sequences, listed by entry. Tags and fused reporters are not part of them.
UniProt Q8NER1, whole entry, looked up: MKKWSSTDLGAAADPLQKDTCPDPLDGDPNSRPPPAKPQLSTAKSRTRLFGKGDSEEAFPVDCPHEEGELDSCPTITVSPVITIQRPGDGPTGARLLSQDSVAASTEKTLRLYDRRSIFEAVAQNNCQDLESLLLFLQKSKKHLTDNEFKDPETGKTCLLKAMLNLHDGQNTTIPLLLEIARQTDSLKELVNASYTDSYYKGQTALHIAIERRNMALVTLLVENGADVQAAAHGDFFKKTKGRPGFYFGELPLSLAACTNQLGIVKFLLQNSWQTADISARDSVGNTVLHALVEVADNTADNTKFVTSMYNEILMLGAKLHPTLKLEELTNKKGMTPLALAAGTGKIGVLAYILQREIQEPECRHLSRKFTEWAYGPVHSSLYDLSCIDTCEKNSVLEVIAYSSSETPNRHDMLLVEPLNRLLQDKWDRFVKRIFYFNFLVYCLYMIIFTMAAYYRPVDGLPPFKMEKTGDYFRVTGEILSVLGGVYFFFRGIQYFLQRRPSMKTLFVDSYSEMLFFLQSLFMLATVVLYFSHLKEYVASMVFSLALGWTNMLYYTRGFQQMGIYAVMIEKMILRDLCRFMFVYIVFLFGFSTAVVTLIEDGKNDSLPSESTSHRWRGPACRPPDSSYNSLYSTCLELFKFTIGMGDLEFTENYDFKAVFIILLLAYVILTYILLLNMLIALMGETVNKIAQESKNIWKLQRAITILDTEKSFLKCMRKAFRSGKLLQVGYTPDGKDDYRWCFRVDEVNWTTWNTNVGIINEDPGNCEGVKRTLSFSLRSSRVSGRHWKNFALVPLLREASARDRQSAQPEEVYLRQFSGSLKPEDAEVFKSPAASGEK

Compound | activation
O=C(CCSc1ccc(Br)cc1)Nc1cccnc1 | inconclusive: 42.2%
COc1ccc(C)cc1C1=CC(=O)C[C@H](c2ccc(F)cc2)C1 | inconclusive: 33.1%
COc1ccccc1NC(=O)c1ccc2c(c1)CCN2S(C)(=O)=O | inconclusive: 32.8%
O=C(Nc1ccc(Cl)cn1)c1ccc(Br)c(S(=O)(=O)N2CCCCC2)c1 | inconclusive: 45.7%
Cc1cc(O)c(NC(=S)NC(=O)c2ccc(-c3ccc(Cl)cc3)o2)cc1C | inactive: 2.67%
COc1ccc(CNC(=O)CSc2nc3ccc(OC)cc3[nH]2)cc1 | inconclusive: 52.4%
CC1CC(NNC(=O)c2ccccc2)=Nc2ccccc2N1C (stereo not given) | inactive: -2.47%
O=C(c1ccc(F)cc1)N1CCN(c2ccc([N+](=O)[O-])c(N3CCCCC3)c2)CC1 | inconclusive: 73%
CC(C)Cn1c(-c2ccco2)n[nH]c1=S | inactive: -9.29%
Cc1ccc(N2C(=O)C(O)(C(F)(F)F)C3=C2CC(C)(C)CC3=O)cc1 (stereo not given) | inactive: 0.0635%
Cc1cccc(N2CCN(C(=O)CCC(=O)N3CC(C)Oc4ccccc43)CC2)c1C (stereo not given) | inactive: 0.255%
C=CCn1cnnc1SCC(=O)Nc1cccnc1Cl | inactive: -2.15%
CCOc1cc(C=C(C#N)C#N)ccc1Oc1ccc([N+](=O)[O-])cn1 | inactive: 3.83%
CN(C)NC(=S)NC(=O)C12CC3CC(CC(C3)C1)C2 | inactive: 1.13%
COC(=O)c1ccc(NC(=O)CSCc2ccccc2)cc1 | inconclusive: 46.1%
CCCc1nn(C)c(C(=O)Nc2cccc(CC)c2)c1Cl | inconclusive: 32.2%
O=C1Nc2cc(Cl)c(Cl)cc2N(O)N1c1ccc(Cl)c(Cl)c1 | inactive: -3.25%
CC1Cc2ccccc2N1S(=O)(=O)c1cccc(C(=O)NCc2ccncc2)c1 (stereo not given) | inconclusive: 55.3%
Cc1ccc(C23CC4CC(CC(C(=O)OCC(=O)N(C)C)(C4)C2)C3)cc1 | inconclusive: 44.6%
CC(CC(=O)Nc1ccc2c(c1)OCO2)c1ccccc1 (stereo not given) | inconclusive: 55.3%
CC(C)(C)NC(=O)C(c1ccncc1)N(C(=O)Cn1nnc(-c2ccc(F)cc2)n1)c1ccccc1F (stereo not given) | inactive: 0.626%
O=C(C1CCCN(Cc2ccccc2C(F)(F)F)C1)N1CCCCC1 (stereo not given) | inconclusive: 47.9%
Cc1cc(C)cc(NC(=O)/C=C/c2ccc([N+](=O)[O-])s2)c1 | inactive: 3.24%

3 entries from above in a different format.
CC(C)(C)NC(=O)C(c1ccncc1)N(C(=O)Cn1nnc(-c2ccc(F)cc2)n1)c1ccccc1F (stereo not given)
  activation: inactive: 0.626%
O=C(C1CCCN(Cc2ccccc2C(F)(F)F)C1)N1CCCCC1 (stereo not given)
  activation: inconclusive: 47.9%
Cc1cc(C)cc(NC(=O)/C=C/c2ccc([N+](=O)[O-])s2)c1
  activation: inactive: 3.24%

Continuation:

Compound | activation
Cc1ccc(NC(=S)NCc2ccc3c(c2)OCO3)cc1 | inconclusive: 36.5%
CCOC(=O)C1(CCCc2ccccc2)CCN(C(=O)C(C)n2cncn2)CC1 (stereo not given) | inconclusive: 35.9%
COc1ccc(NC(=O)CC(c2ccc(F)cc2)c2ccc(OC(C)C)cc2)cc1 (stereo not given) | inconclusive: 30.3%
COc1ccc(CNC(=O)C2CCN(c3nc(-c4ccccc4)nc4c3CCC4)CC2)cc1 | inconclusive: 43.1%
COc1ccc(C(=O)NCCCNC(=O)c2cccnc2)cc1OC | inactive: -0.542%
Cc1ccc(C)c(C(=O)CCC(=O)Nc2cccnc2)c1 | inconclusive: 41.3%
COc1ccc(-c2[nH]c(-c3ccc(C)cc3)nc2SCC(=O)NC2CCCC2)cc1 | inactive: -0.197%
Cc1ccc2c(c1)nnn2C1CCN(C(=O)Nc2ccccc2C)CC1 | inconclusive: 33.4%
Cc1ccc(-c2noc(CSc3ccccc3)n2)cc1 | inactive: 16.8%
CC1=C(C(=O)Nc2ccccc2C)C(c2cccs2)NC(=S)N1 (stereo not given) | inactive: -0.709%
O=C(Nc1ccccc1)Nc1ccc(Br)c(Cl)c1 | inconclusive: 42.7%
O=S(=O)(c1ccc(F)cc1)N1CCN(C(=S)NCc2ccccc2)CC1 | inconclusive: 65.6%
CCCc1cc(=O)oc2cc(OCc3ccc(OC)cc3)c(Cl)cc12 | inactive: 1.33%
c1ccc(C[C@H]2CN=C(Nc3ccccc3)N2CC2CCC2)cc1 | inactive: 2.77%
CC(C)C1Cc2c(sc3c2c(=O)n(Cc2ccccc2)c2nncn32)CO1 (stereo not given) | inconclusive: 39.9%
FC(F)(F)COc1nc(N/N=C/c2cccnc2)nc(N2CCCCC2c2ccccn2)n1 (stereo not given) | inconclusive: 67.6%
CC1(C)Cc2cccc(Oc3ccc(S(=O)(=O)N4CCCCC4)cn3)c2O1 | inconclusive: 49%
Cc1ccn(-c2cccc(-n3ccc(C)n3)n2)n1 | inconclusive: 43.1%
CCOC(=O)CCCCC(=O)c1[nH]c(=O)[nH]c1CSc1nc(-c2ccccc2)c(C#N)c(=O)[nH]1 | inactive: 1.01%
CC/C(=N\NC(=O)c1ccc2c(c1)OCO2)c1ccccc1 | inconclusive: 66.5%
C/C(CC(=O)Nc1ccccn1)=N\NC(=O)c1ccc(C)cc1 | inconclusive: 36.4%
CCc1nn(CC(=O)N2CCC(C)CC2)c(=O)c2cccn12 | inactive: -0.719%
CC(C)CN(Cc1cc(=O)oc2cc3c(cc12)CCCC3)CC(C)C | inconclusive: 49.5%

Compound | activation
CC(C)c1cccc(C(C)C)c1OC(=O)[C@H]1OC(C(C)(C)C)=C[C@@H]1c1ccccc1 | inconclusive: 41.5%
O=C(Nc1nc2ccccc2s1)c1ccc2c(c1)OCO2 | inconclusive: 39.1%
O=C(Nc1ccc(OC(F)F)cc1)Nc1cccc(C(F)(F)F)c1 | inconclusive: 51.1%
O=C(c1cc(-c2ccc(Br)cc2)on1)N1CCCCCC1 | inconclusive: 38.7%
COCCCn1c(C)cc(C(=O)COC(=O)C23CC4CC(CC(O)(C4)C2)C3)c1C | inactive: 1.53%
Cc1ccc(CSCC(=O)N2CCN(c3ccc(F)cc3)CC2)cc1 | inconclusive: 34.4%
CC(Oc1cccc([N+](=O)[O-])c1)C(=O)NCCC1=CCCCC1 (stereo not given) | inconclusive: 59.9%
CC1CN(C(=O)c2ccccc2OCc2ccc(Cl)cc2Cl)CC(C)O1 (stereo not given) | inconclusive: 35.6%
CCCNC(=O)c1onc(CSc2ccc(F)cc2)c1C(=O)NCCC | inconclusive: 65%
COc1ccc(CNS(=O)(=O)CCNC(=O)c2ccccc2)cc1 | inactive: -5.41%
CC(=O)c1c(C)[nH]c(C(=O)CN2CCN(S(=O)(=O)c3ccccc3[N+](=O)[O-])CC2)c1C | inactive: 0.169%
CCOC(=O)C1CCCN(c2nc3ccccc3nc2C(C#N)C(=O)OCC)C1 (stereo not given) | inconclusive: 50.8%
CCOC(=O)c1ccc(NC(=O)N2CCCCCC2)cc1 | inconclusive: 63.6%
COc1cccc(C(=O)C2CCCN(C(=O)CCc3scnc3C)C2)c1 (stereo not given) | inconclusive: 52.8%
CC(C)c1nc2ccccc2c2nnc(SCC(=O)NCc3ccco3)n12 | inconclusive: 35.5%
S=C(NC1CCCCC1)N(CCc1nc2ccccc2[nH]1)C1CCCC1 | inconclusive: 66.3%
Cc1cc(C(=O)Nc2ccc(Cl)cc2)c(C)n1Cc1cccs1 | inconclusive: 62%
CSCCC(NS(=O)(=O)c1cccc(C(F)(F)F)c1)C(=O)Nc1ccccc1N1CCCC1 (stereo not given) | inactive: 5%
COc1ccc(CC(=O)Nc2ccccc2C(=O)NCCc2ccccc2)cc1 | inconclusive: 57.2%
O=C(C1CCCN(Cc2nc(-c3ccc(Cl)cc3)no2)C1)N1CCOCC1 (stereo not given) | inconclusive: 46.9%
COc1ccc(Nc2ncc(C(=O)N3CCN(Cc4ccccc4)CC3)c3ccccc23)cc1 | inactive: 1.74%
O=C(CCCCn1c(=S)[nH]c2ccsc2c1=O)NCc1ccco1 | inactive: 1.32%
CCCCn1cc(C(=O)c2cc(Br)ccc2O)cc(C#N)c1=O | inactive: -1.32%

Compound | activation
COC(=O)c1cc(OC)c(OC)cc1NC(=O)CC1CCCCC1 | inconclusive: 52%
CCOC(=O)/C(C#N)=C/C=C1/C=CC=CN1C | inactive: 0.944%
COc1ccc2c(c1)CCc1c(C(=O)NCCc3ccc(OC)c(OC)c3)noc1-2 | inactive: 3.08%
COc1ccc(-c2nc(Cn3c(SCc4ccc(F)cc4)nc4ccncc43)c(C)o2)cc1OC | inactive: -1.7%
O=C(NN=C(Cc1ccccc1)Cc1ccccc1)c1ccccc1O | inconclusive: 43.9%
S=c1[nH]nc(-c2cccc3ccccc23)n1-c1cccnc1 | inactive: -4.41%
Cc1cc(=O)[nH]c(N2CCN(Cc3ccccc3)CC2)n1 | inconclusive: 70%
CC1(C)C2CCC1(C)C(OC(=O)c1ccc(O)cc1)C2 (stereo not given) | inconclusive: 31.7%
CCCc1ccc(-c2c(C)sc(NC(=O)c3ccnn3C)c2C#N)cc1 | inconclusive: 46.5%
O=C(/C=C/c1ccco1)NCCc1ccccc1 | inconclusive: 49.8%
COc1ccc(N2CC(O)=C(c3nc4ccccc4s3)C2=N)cc1 | inactive: 13.5%
CCN(CC)c1ccc(NC(=O)c2cnn(CC)c2)cc1 | inconclusive: 73.3%
Cc1cc(C)c(NC(=O)c2cccc3c2C(=O)N(C2CCCCC2)C3)c(C)c1 | inconclusive: 50.2%
CCn1c(=O)cc(SCC(=O)N2CCC(C)CC2)c2ccccc21 | inconclusive: 49.1%
COc1cc2c(c3oc(-c4ccccc4)cc(=O)c13)C=CC(C)(C)O2 | inconclusive: 41.2%
Cc1ccc(N2CCN(C(=O)N3CCCC3)CC2)cc1C | active: 93.5%
O=C(COC(=O)c1cc(-c2ccc(F)cc2)nc2ccccc12)NCC1CCCO1 (stereo not given) | inconclusive: 36.5%
C=CCc1ccccc1OCC(O)CN1CCN(c2ccc(C)cc2)CC1 (stereo not given) | inactive: 2.84%
CCc1ccc2[nH]c(C(=O)Nc3ccc4c(c3)OCO4)cc2c1 | inconclusive: 43.9%
Cc1cc(NC(=O)CN2C(=O)NC3(CCCCCC3)C2=O)ccc1Br | inconclusive: 40.3%
O=C(Nc1cccc(O)c1)c1ccc(Br)c(S(=O)(=O)N2CCCCC2)c1 | inconclusive: 60.1%

A draw from above in order of number of heavy atoms, largest number first:
Compound | activation
COc1ccc(N2CC(O)=C(c3nc4ccccc4s3)C2=N)cc1 | inactive: 13.5%
S=c1[nH]nc(-c2cccc3ccccc23)n1-c1cccnc1 | inactive: -4.41%
Cc1ccc(N2CCN(C(=O)N3CCCC3)CC2)cc1C | active: 93.5%
O=C(/C=C/c1ccco1)NCCc1ccccc1 | inconclusive: 49.8%
